Values from PubChem BioAssay AID1259424 (University of Nebraska Medical Center, 2018)

Test: 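Find knockdowns that reproduce the expression shifts seen after KSR1 loss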 (primary screen)
Cells: human HCT116 colon cancer cells
Reagent: siRNA pool against human genes, 50 nM
Measurement: 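Log2 levels of six mRNAs (branched-DNA multiplex), adjusted by two reference genes and the non-targeting median, then scored against the average KSR1 knockdown pattern as Pearson r and euclidean distance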
Direction: mean correlation with KSR1 profile: higher = expression change more like KSR1 knockdown; mean distance from KSR1 profile: higher = expression change less like KSR1 knockdown
Here is one part, drawn at random, of about 14,000 deposited reagents. 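Higher correlation or smaller distance means closer resemblance to KSR1 loss; control wells, including KSR1 knockdowns, recur on many plates.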 Further read-outs or replicates are left out here. The record does not give: the time to read-out.

gene	mean correlation with KSR1 profile	mean distance from KSR1 profile
RARS1 (arginyl-tRNA synthetase 1)	-0.22	2.64
GABRA6 (gamma-aminobutyric acid type A receptor subunit alpha6)	0.382	1.83
NCAN (neurocan)	-0.116	3.21
SRP54 (signal recognition particle 54)	-0.396	2.66
PIK3R3 (phosphoinositide-3-kinase regulatory subunit 3)	0.467	1.95
IRAK3 (interleukin 1 receptor associated kinase 3)	0.409	2.09
SLCO5A1	0.551	1.33
PRKRIP1 (PRKR interacting protein 1)	0.412	1.76
RGP1 (RGP1 partner of RAB6A GEF complex)	0.851	1.8
SPHK2 (sphingosine kinase 2)	0.302	1.59
FAM161A (FAM161 centrosomal protein A)	0.556	3.3
RPS17 (ribosomal protein S17)	0.14	1.63
KIF1C (kinesin family member 1C)	-0.00409	1.73
CBX3 (chromobox 3)	-0.0564	1.72
ZNF365 (zinc finger protein 365)	-0.0526	2.05
ZSCAN20 (zinc finger and SCAN domain containing 20)	-0.201	3.58
PCDHAC2 (protocadherin alpha subfamily C, 2)	0.152	1.86
USP32 (ubiquitin specific peptidase 32)	0.374	2.44
ROBO2 (roundabout guidance receptor 2)	0.058	1.51
MGAM (maltase-glucoamylase)	0.113	2.33
FHL3 (four and a half LIM domains 3)	-0.246	2.87
LINC00339 (long independently transcribed non-coding RNA 339)	-0.137	2.85
INCENP (inner centromere protein)	0.0566	2.97
ISCU (iron-sulfur cluster assembly enzyme)	-0.382	5.88
MTMR6 (myotubularin related protein 6)	0.54	1.53
DENND1C (DENN domain containing 1C)	-0.00569	2.56
DLX3 (distal-less homeobox 3)	0.804	0.725

3 entries from above, showing only “mean distance from KSR1 profile”.
PIK3R3 (phosphoinositide-3-kinase regulatory subunit 3)	1.95
IRAK3 (interleukin 1 receptor associated kinase 3)	2.09
SLCO5A1	1.33

The list goes on.
gene	mean correlation with KSR1 profile	mean distance from KSR1 profile
HTR2C (5-hydroxytryptamine receptor 2C)	0.696	1.78
EBF1 (EBF transcription factor 1)	0.197	1.56
KANK1 (KN motif and ankyrin repeat domains 1)	-0.301	1.9
MYO15A (myosin XVA)	-0.529	1.9
AP3B2 (adaptor related protein complex 3 subunit beta 2)	-0.349	3.49
BCKDHB (branched chain keto acid dehydrogenase E1 subunit beta)	0.475	4.13
CD33 (CD33 molecule)	0.119	1.59
ADCYAP1 (adenylate cyclase activating polypeptide 1)	-0.0707	1.53
LINC00158 (long independently transcribed non-coding RNA 158)	-0.331	1.58
DUSP7 (dual specificity phosphatase 7)	0.208	1.94
MPPED2 (metallophosphoesterase domain containing 2)	-0.462	1.9
LGALS13 (galectin 13)	0.821	1.84
NECAP1 (NECAP endocytosis associated 1)	0.0726	1.98
CDKN2A (cyclin dependent kinase inhibitor 2A)	0.591	0.974
TECPR1 (tectonin beta-propeller repeat containing 1)	-0.094	2.52
B3GALNT2 (beta-1,3-N-acetylgalactosaminyltransferase 2)	-0.321	2.36
DGKZ (diacylglycerol kinase zeta)	-0.719	5.23
FMO4 (flavin containing dimethylaniline monoxygenase 4)	-0.0261	1.4
BMAL1 (basic helix-loop-helix ARNT like 1)	-0.742	1.25
BDNF (brain derived neurotrophic factor)	0.186	2.75
BRD9 (bromodomain containing 9)	0.673	0.886
PRH1 (proline rich protein HaeIII subfamily 1)	0.0944	2.38
MLEC (malectin)	-0.637	2.47
